Measurements as given in paper PMC2847038 (Hippocampus, 2010).

System: Ki-67 positive progenitor cells in the dentate gyrus
Conditions: 1 mg/kg daily, 8 days, alone or combined with VEx

Structure (SMILES): Cc1c(C(=O)NN2CCCCC2)nn(-c2ccc(Cl)cc2Cl)c1-c1ccc(I)cc1 [AM251]
- cellular expression of Ki-67 within the hilus of the dentate gyrus: Neither treatment, alone nor in combination, had any effect
